Reference: PMC7819943, “Rice protein-binding microarrays: a tool to detect cis-acting elements near promoter regions in rice”
This is one part of the list.

Sequences of proteins named here, by UniProt entry; tags and fusion partners are left off.
UniProt Q0JBA9, entry or part of it: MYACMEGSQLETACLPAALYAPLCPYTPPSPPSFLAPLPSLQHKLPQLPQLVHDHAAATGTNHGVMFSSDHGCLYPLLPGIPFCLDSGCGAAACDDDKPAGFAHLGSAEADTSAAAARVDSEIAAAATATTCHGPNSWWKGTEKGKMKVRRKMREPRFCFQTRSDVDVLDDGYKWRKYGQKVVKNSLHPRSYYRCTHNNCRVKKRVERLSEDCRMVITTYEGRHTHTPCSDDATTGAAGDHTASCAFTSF

molecular target: OsWRKY34 (Oryza sativa, UniProt Q0JBA9 1-250); assay: protein-binding microarray (RPBM); PBS, 2% BSA, 51.3 ng/ul salmon testes DNA, 50 uM zinc acetate, 200 nM TF, 25 C, 1 h; high values mean tight binding; settings: protein: recombinant; tags: N-terminal polyhistidine and DsRed monomer fusion (pET32a); label: CyDye5-dUTP incorporated in the synthesized complementary strand; 3' TTTTT single-stranded linker to array surface; dsDNA, one strand shown
Method in brief: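 Ni–NTA purification followed expression in E. coli BL21-CodonPlus of transcription factors fused N-terminally to a polyhistidine tag and DsRed. At 200 nM in PBS with 2% BSA, salmon testes DNA and 50 µM zinc acetate, the protein was incubated for 1 h at 25 °C with a custom Agilent array that had been primer-extended with Cy5-dUTP and blocked with 2% BSA. After washing, the array was read on an Axon 4000B scanner. The binding signal is per-feature fluorescence intensity in arbitrary units.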

Sequence	binding signal
TCCGAATTCTCTCTCTCCTCCATTTTTGTGAGTTTTTTTTCGGAGTCACCTAGTGCAG	14100 fluorescence intensity (a.u.)
CTGTTTAGATCCCACCTCAAAATTTTTCACCCTGTCACATCGGAGTCACCTAGTGCAG	11700 fluorescence intensity (a.u.)
TTGCCTTTTGGTGCCCGTTCGCTGTTCTTCTTGTCGTCTGCGGAGTCACCTAGTGCAG	10500 fluorescence intensity (a.u.)
ATTGCCGTTTATATTTGGTCAAATTTAAACGTTTTCTTTTCGGAGTCACCTAGTGCAG	8020 fluorescence intensity (a.u.)
GCCTTAGCTCTTCGCCATAAGATTGCACTTGTAGTACTTTCGGAGTCACCTAGTGCAG	8180 fluorescence intensity (a.u.)
AAACTGCACTACTTTATCTTGGTTGTCTTTAGCATAAGAACGGAGTCACCTAGTGCAG	12100 fluorescence intensity (a.u.)
CACCAACCACGTATGTGCTACTTGTCTTGCAAGCAAATCCCGGAGTCACCTAGTGCAG	8200 fluorescence intensity (a.u.)
CTCTCGTTTGCATTGCAGGGATCATCAACCGCGCGTCATGCGGAGTCACCTAGTGCAG	8990 fluorescence intensity (a.u.)
TATTTTTTTCATATTAATATCGTTACCTGTTCCTCTTTTACGGAGTCACCTAGTGCAG	10400 fluorescence intensity (a.u.)
TGTGATATCCGTAACTCTGACACTCCGTATTTGTGAATCTCGGAGTCACCTAGTGCAG	8100 fluorescence intensity (a.u.)
ACATGATGGATGTTTTATTGTCCTCGGTCTCTACGCTCTTCGGAGTCACCTAGTGCAG	8280 fluorescence intensity (a.u.)
GTCGTCGTCTTCGTCTCGAGTTCTTGGTTGGTTGGATCTACGGAGTCACCTAGTGCAG	19400 fluorescence intensity (a.u.)
TTACCTGTTCTTTGGCAGAATTTGTGTGGAGGGTGGTTTGCGGAGTCACCTAGTGCAG	8120 fluorescence intensity (a.u.)
TGTCCCAACAACGTTCAACGCGTTCTGCCACAACCCACAACGGAGTCACCTAGTGCAG	9360 fluorescence intensity (a.u.)
CCTCCAATCAACTGTACAATGAGTAGCTCATTTCTCTTTTCGGAGTCACCTAGTGCAG	8760 fluorescence intensity (a.u.)
CGCACTCTCTCTCGCTATAGCCTATAGCGTCTCTCCCGAACGGAGTCACCTAGTGCAG	11400 fluorescence intensity (a.u.)
TCCCTTTTTCCTTCTTTTTTCTCCCTTTTTATCCTTTTTTCGGAGTCACCTAGTGCAG	14900 fluorescence intensity (a.u.)
AAACGTTTCTACTTTGGTCAAAGTCAAACTGCTTTATATTCGGAGTCACCTAGTGCAG	10700 fluorescence intensity (a.u.)
GTGAGGAAATGGATGTTGATAAGTTGGGTTGTTAGCTTTACGGAGTCACCTAGTGCAG	12000 fluorescence intensity (a.u.)
AGCTTTATATTACCCGCGTCCTAAAAAGATTACAGTTTTTCGGAGTCACCTAGTGCAG	8190 fluorescence intensity (a.u.)
GTTTGTGGTTCAGTTTTTGTCCCCATGGGTCTCTTAGCGGCGGAGTCACCTAGTGCAG	9120 fluorescence intensity (a.u.)

Sequence	binding signal
ACGTCATCCCACCGCGGCTGCTTTCCATTTCCGCCACAGCCGGAGTCACCTAGTGCAG	12600 fluorescence intensity (a.u.)
GGCAGGCAAGGGGAGGGGCAGGAAGAAGGGAAGAATTGAACGGAGTCACCTAGTGCAG	9270 fluorescence intensity (a.u.)
CCCTATTTATACAGCTCAGCACCCTCACTCCCACTCACAACGGAGTCACCTAGTGCAG	11300 fluorescence intensity (a.u.)
TATTCAACTTGCGTCAAAATTAGATCCTTACAATTCTCTCCGGAGTCACCTAGTGCAG	8290 fluorescence intensity (a.u.)
AGCCACACCCCAACTTTAACACGTCTCAGTTGACTATAAACGGAGTCACCTAGTGCAG	8300 fluorescence intensity (a.u.)
GTCCGCCTATGAGTCTATCATTCCTCCTTTTTTCCCTTCTCGGAGTCACCTAGTGCAG	12800 fluorescence intensity (a.u.)
GCTCATAGGGATAGGGTTTGCGTGCATGTGTTTATAGGGGCGGAGTCACCTAGTGCAG	12500 fluorescence intensity (a.u.)
GGAGTATGACAGGTGGGGCCGCGTCAGGGGTATTTTGGTCCGGAGTCACCTAGTGCAG	8480 fluorescence intensity (a.u.)
ACATCACTACATCAGAGCTTGAAGCTCTCTTCTCTCTCTCCGGAGTCACCTAGTGCAG	8160 fluorescence intensity (a.u.)
CGTCTCCTGCTCGAGTCATCGTCCCCACTGCGTGCACAAGCGGAGTCACCTAGTGCAG	8910 fluorescence intensity (a.u.)
GGTCAAGGCGACATTGCTACTCTTTGCCTATAAATCAATCCGGAGTCACCTAGTGCAG	8100 fluorescence intensity (a.u.)
GCCGTCCTGCAGTTCCTATTTATTTCTTTTGGTGTGTGTGCGGAGTCACCTAGTGCAG	8390 fluorescence intensity (a.u.)
CTAACAAGTACACCTTGATTGAAGTGGATTTTATTATTACCGGAGTCACCTAGTGCAG	8930 fluorescence intensity (a.u.)
TTTCTGTATCTTTGACATCGGCGCTCCTAATATGTCACCGCGGAGTCACCTAGTGCAG	9170 fluorescence intensity (a.u.)
CTGCAGCTACCAACCTCCTCCCGGCGCGCTTGCTTTCTGCCGGAGTCACCTAGTGCAG	8490 fluorescence intensity (a.u.)
CAACCCCACCGCCGCCGCCGCAAACCGTCTCGCCGTCGCCCGGAGTCACCTAGTGCAG	11600 fluorescence intensity (a.u.)
GGATTGTTTTTGGTATAGCTCCAACTCCTAAATTTAGCTCCGGAGTCACCTAGTGCAG	8480 fluorescence intensity (a.u.)
ACATCTGTAAAAATCGTGCTCTATTTTCGCATGCGACTCTCGGAGTCACCTAGTGCAG	9450 fluorescence intensity (a.u.)
TACCACCTCTCATGTCTCCTATGTCGATCTAAACATTTCTCGGAGTCACCTAGTGCAG	9460 fluorescence intensity (a.u.)
GGGCCCACCACCCAACCCACCTCTCCTCTCCCGCGGTCAACGGAGTCACCTAGTGCAG	10400 fluorescence intensity (a.u.)
CCTCTTGTTGACCACCGCTCATTGCCCTCCCATCAGTTGCCGGAGTCACCTAGTGCAG	8320 fluorescence intensity (a.u.)

Given with each value named: entries from further up
TTTCTGTATCTTTGACATCGGCGCTCCTAATATGTCACCGCGGAGTCACCTAGTGCAG
  binding signal: 9170 fluorescence intensity (a.u.)
CTGCAGCTACCAACCTCCTCCCGGCGCGCTTGCTTTCTGCCGGAGTCACCTAGTGCAG
  binding signal: 8490 fluorescence intensity (a.u.)
